Data source: PubChem BioAssay AID686938 (Drosophila RNAi Screening Center, 2013)
The deposit covers about 23,000 reagents; shown is an unselected part of those that have a named target and a result. Of all reagents, 75 (0.33%) got an active call. 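Raw plate signals without normalisation; calls rest on plate z-scores that were not deposited; ratio present for only 364 wells.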 A number with no mark means an inactive call. Names joined by + are all predicted targets of the reagent. Not stated in the record: the dose of the treatment.

- Test: 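Knock-downs reducing store-operated calcium influx in Drosophila cells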 (primary screen)
- Cell system: Drosophila S2R+ cells
- Reagent: long dsRNA against Drosophila genes, about 0.25 µg dsRNA per well, roughly 10,000 cells
- Duration: 5 days of knock-down before the calcium assay
- Treatment: thapsigargin (SERCA pump blocker) to empty calcium stores; entry signal taken 4 min after adding it
- Read-out: 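Per-well fluo-4 fluorescence in two replicates, unnormalised, measured in resting cells and 4 min after store depletion by the SERCA blocker thapsigargin; ratio of the two present in few wells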
- Scale: calcium entry signal: higher = stronger calcium signal after store depletion; entry to resting ratio: higher = more calcium entry relative to resting level; resting calcium signal: higher = higher resting calcium signal
- Units: calcium entry signal in fluorescence units; resting calcium signal in fluorescence units
- Rule for the call: 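Hit if the duplicate-averaged plate z-score for entry over resting signal is under −3; wells with weak total dye signal (Fmax z < −2) or more than 5 off-targets removed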
- Meaning of the calls: active = strongly reduced calcium entry; inactive = no strong reduction

predicted target | DRSC id | calcium entry signal, replicate 1 | calcium entry signal, replicate 2 | entry to resting ratio | resting calcium signal, replicate 1 | resting calcium signal, replicate 2
Dhod | DRSC16647 | 2.23e7 | 2.97e7 | – | 1.05e7 | 1.40e7
CG18171 | DRSC08524 | 3.60e7 | 3.96e7 | – | 1.89e7 | 1.80e7
Rpp30 | DRSC00320 | 3.31e7 | – | – | 1.80e7 | –
Cds | DRSC10938 | 4.97e7 | 4.54e7 | – | 2.94e7 | 1.97e7
MED31 | DRSC12142 | 2.83e7 | 4.17e7 | – | 1.52e7 | 2.71e7
Sdr | DRSC15517 | 4.03e7 | 4.63e7 | – | 1.64e7 | 2.01e7
CG3277 | DRSC00588 | 2.91e7 | 2.71e7 | – | 1.44e7 | 1.42e7
CG6614 | DRSC02974 | 5.23e7 | – | – | 2.41e7 | –
CG17977 | DRSC06700 | 3.68e7 | 4.25e7 | – | 1.73e7 | 1.85e7
LysD + LysB + LysC (retired record) | DRSC21249 | 4.55e7 | 4.39e7 | – | 2.41e7 | 1.96e7
ppk17 | DRSC02252 | 3.40e7 | 2.15e7 | – | 1.49e7 | 1.13e7
Dis3l2 | DRSC08496 | 4.27e7 | 3.44e7 | – | 1.91e7 | 1.88e7
CG17739 | DRSC06689 | 4.06e7 | 3.68e7 | – | 1.69e7 | 1.74e7
CG6839 | DRSC10723 | 3.60e7 | 4.12e7 | – | 1.62e7 | 2.92e7
CG13000 | DRSC19519 | 2.72e7 | 2.23e7 | – | 1.53e7 | 1.19e7
eIF3a | DRSC12339 | 1.12e7 | 1.53e7 | – | 7.95e6 | 1.05e7
Ctr1A | DRSC18336 | 3.61e7 | 3.30e7 | – | 1.87e7 | 1.75e7
Nep6 | DRSC19877 | 2.84e7 | 2.72e7 | – | 1.65e7 | 1.44e7
C3G | DRSC17745 | 3.13e7 | 3.55e7 | – | 1.43e7 | 1.51e7
C3G | DRSC17929 | 3.58e7 | 4.62e7 | – | 1.63e7 | 1.93e7
C3G | DRSC22329 | 3.89e7 | 4.30e7 | – | 1.90e7 | 2.27e7
C3G | DRSC23077 | 5.73e7 | 2.51e7 | – | 2.69e7 | 1.06e7
CG42747 | DRSC10209 | 3.19e7 | 4.29e7 | – | 1.46e7 | 1.57e7
CG42747 | DRSC10210 | 3.31e7 | 5.82e7 | – | 1.64e7 | 2.38e7
AstA-R2 | DRSC14171 | 3.70e7 | 5.41e7 | – | 1.91e7 | 2.31e7
CG31800 | DRSC22525 | 2.94e7 | 2.52e7 | – | 1.43e7 | 1.13e7
CG43867 | DRSC17582 | 3.50e7 | 4.12e7 | – | 1.98e7 | 1.76e7
CG43867 | DRSC17836 | 3.61e7 | 4.67e7 | 2 | 1.78e7 | 1.90e7
CG43867 | DRSC17837 | 4.27e7 | 3.06e7 | 2.1 | 2.01e7 | 1.29e7
CG43867 | DRSC17942 | 3.87e7 | 3.40e7 | 2.1 | 1.87e7 | 1.76e7
CG43867 | DRSC17943 | 4.22e7 | 5.72e7 | 2 | 2.06e7 | 2.26e7
CG30416 | DRSC04565 | 3.70e7 | 3.90e7 | – | 2.03e7 | 1.71e7
CG5539 | DRSC04510 | 4.17e7 | 3.91e7 | – | 2.16e7 | 1.80e7
CR43096 + CG43060 | DRSC12654 | 3.13e7 | 5.66e7 | – | 1.58e7 | 2.46e7
Mec2 | DRSC20054 | 4.95e7 | 5.60e7 | – | 2.65e7 | 2.40e7
Mal-A6 | DRSC07233 | 3.92e7 | 3.81e7 | – | 1.81e7 | 1.70e7
rb | DRSC18826 | 4.39e7 | 4.51e7 | – | 2.07e7 | 2.08e7
CG14096 | DRSC10099 | 3.10e7 | 2.70e7 | – | 1.55e7 | 1.33e7
CG31371 | DRSC15079 | 3.74e7 | 4.77e7 | – | 1.97e7 | 1.92e7
Dll | DRSC04610 | 3.52e7 | 5.38e7 | – | 1.91e7 | 2.37e7

A portion from the list above:
predicted target | DRSC id | calcium entry signal, replicate 1 | calcium entry signal, replicate 2 | entry to resting ratio | resting calcium signal, replicate 1 | resting calcium signal, replicate 2
CG31800 | DRSC22525 | 2.94e7 | 2.52e7 | – | 1.43e7 | 1.13e7
CG43867 | DRSC17582 | 3.50e7 | 4.12e7 | – | 1.98e7 | 1.76e7
CG43867 | DRSC17836 | 3.61e7 | 4.67e7 | 2 | 1.78e7 | 1.90e7
CG43867 | DRSC17837 | 4.27e7 | 3.06e7 | 2.1 | 2.01e7 | 1.29e7
